# Patent publication US7442836B2, “Phenethanolamine derivatives for treatment of respiratory diseases” (Glaxo Group Limited, priority 2001, dated 2008)
# Protein sequences, listed by entry. Tags and fused reporters are not part of them.
# UniProt P07550, whole entry: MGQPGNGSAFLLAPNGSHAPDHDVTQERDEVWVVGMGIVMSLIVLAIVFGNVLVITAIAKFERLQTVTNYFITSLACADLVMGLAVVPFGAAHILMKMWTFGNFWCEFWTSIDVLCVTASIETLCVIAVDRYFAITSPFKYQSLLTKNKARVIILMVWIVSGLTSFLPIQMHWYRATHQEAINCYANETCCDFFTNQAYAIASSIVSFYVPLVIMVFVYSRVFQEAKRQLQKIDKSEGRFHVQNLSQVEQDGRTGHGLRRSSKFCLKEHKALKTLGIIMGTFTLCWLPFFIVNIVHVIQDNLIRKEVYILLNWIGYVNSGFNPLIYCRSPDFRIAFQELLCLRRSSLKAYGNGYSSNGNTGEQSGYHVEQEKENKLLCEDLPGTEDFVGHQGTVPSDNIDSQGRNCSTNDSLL
# Some entries share one result that the patent states for a list of compounds. At least one structure is not confirmed: it was looked up by name or label, or the drawing left a doubt.
# Target: T1, human beta 2 adrenoreceptor (Homo sapiens, UniProt P07550)
# T1 construct: expressed in transfected cells; host or cells: frog melanophores
# Assay: Beta 2 agonist potency in frog melanophores transfected with the human beta 2 adrenoreceptor (pigment dispersal, light transmittance)
# Assay type: cell-based
# Settings: melatonin-induced pigment aggregation
compound,measurement,value
"O=S(=O)(c1cccc(CCCCOCCCCCCNCC(O)c2ccc(O)c(CO)c2)c1)N1CCNCC1 [Example 33, 2-(Hydroxymethyl)-4-{(1R)-1-hydroxy-2-[(6-{-4-[3-(piperazin-1-ylsulfonyl)phenyl]butoxy}hexyl)amino]ethyl}phenol acetate]",IC50,< 1000 nM
